Library screen at single concentrations

Measurements from “University of Dundee, Small-Polar-MMV Screening Library” (2021), ChEMBL document CHEMBL3988442.

Values are the deposited “Percent Effect”, in %.
The controls that fix the scale are not given in the record; negative values are as filed.
This is an unselected part of the compounds tested.

Mtb glucose medium: 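Growth of Mycobacterium tuberculosis over 3 days (7H9 medium with glucose and tyloxapol); the read-out is not stated. Concentration: 500 µM. Higher reads as more growth inhibition (inferred: compounds with an IC50 in retests scored well above the rest). Of about 18,000 compounds tested this way, about 1,400 (7.9%) reached 50% or more in at least one test.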
Mtb cholesterol medium: 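Phenotypic screen: M. tuberculosis growth, cholesterol and DPPC medium, 4 days; the read-out is not stated. Compounds at 500 µM. Higher reads as more growth inhibition (inferred: compounds with an IC50 in retests scored well above the rest). Of about 18,000 compounds tested this way, about 900 (5%) reached 50% or more in at least one test.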

compound	Mtb glucose medium	Mtb cholesterol medium
CCOCCN1CCN(C2(C(N)=O)CCCCC2)CC1	11.83%	2.623%
CC(C)(C)OC(=O)N1CCN(c2ccc(N)nc2)CC1	41.7%	16.18%
NCCOc1cccnc1	-3.816%	-6.784%
CN(CC(=O)N1CCOCC1)Cc1cc(Br)cs1	57.3%	53.14%
CC(=O)c1ccc(C(=O)NC[C@@H]2C[C@H](F)CN2)s1	10.04%	-11.06%
COC(=O)CCSc1nncs1	7.075%	9.726%
O=C(CNC(=O)c1cccs1)c1ccccc1	53.73%	35.64%
CCCOC1CCCNC1 (stereo not shown)	5.938%	-3.639%
O=C1CNCCN1Cc1ccccc1F	17.31%	9.592%
CCCn1nc(C(=O)Nc2ccc(Cl)cn2)ccc1=O	-2.844%	-4.937%
CC(Cn1cccn1)NCC(=O)N1CCNC(=O)C1 (stereo not shown)	6.378%	4.81%
NCC(O)c1ccc(Cl)c(F)c1 (stereo not shown)	53.33%	37.43%
Cc1cccc(N2CCN(CCC(N)=O)CC2)c1	16.82%	8.922%
CC1CN(c2cc(CN)ccn2)CCO1 (stereo not shown)	40.53%	13.38%
Cc1onc(N)c1S(=O)(=O)NCc1ccccc1Cl	52.91%	48.97%
COCC(=O)N1CCCN(Cc2ncc[nH]2)CC1	1.38%	2.485%
CSCc1ncn(-c2ccccc2)n1	39.26%	39.02%
Cc1n[nH]c(C)c1C(N)C(=O)NCC1(O)CCCCC1 (stereo not shown)	2.75%	-3.046%
CC(C)CC(O)C1CCN(Cc2cccnc2N)CC1 (stereo not shown)	4.467%	1.922%
O=c1oc(-c2ccc(F)cc2)nn1Cc1cccnc1	8.523%	-8.319%
CCc1nsc(N2CCSCC2)n1	33.18%	17.2%
CCNC(=O)CCc1nc(-c2ccccc2OC)no1	24.22%	8.228%
CCNC(=O)c1ccc2n1CCNC2C (stereo not shown)	6.566%	0.9347%
c1ccc2c(c1)COC21CCNCC1	-1.798%	-8.496%
COC(=O)C(C)OC(=O)c1cccnc1SC (stereo not shown)	50.32%	26.49%
CCC(c1ccc(F)cc1)N1CC[S+]([O-])CC1 (stereo not shown)	19.92%	10.4%
Brc1ccc(C2CCCN2)nc1 (stereo not shown)	28.27%	3.534%
Cc1cc(NC(=O)CN2CCCC2C(=O)N(C)C)on1 (stereo not shown)	-0.06833%	0.694%
CC1=C(C(=O)NCc2cccnc2)C(C)NC(=O)N1 (stereo not shown)	-9.849%	-7.319%
COc1ccc(C(=O)NC2=NCCS2)cn1	16.09%	19.51%
COCC(=O)Nc1ccc2c(c1)CCC2	20.52%	-6.11%
CNCC1CCCN(C(=O)c2cccc(C)c2F)C1 (stereo not shown)	1.833%	-1.872%
Cc1ccc(-c2noc(CNC(=O)C(C)C)n2)nn1	-4.001%	-13.31%
O=C1NCC(C(=O)NCCc2ccc(Cl)s2)N1 (stereo not shown)	6.619%	-7.765%
CC(C)(C)CNC(=O)CCN1C(=O)CCC1=O	4.209%	5.671%
CC(=O)NCC1CN(c2ncccc2F)CCO1 (stereo not shown)	56.97%	45.61%
CCC(OC)c1n[nH]c(=O)n1Cc1cccc(OC)c1 (stereo not shown)	20.26%	-7.159%
CC(C)C(=O)N1CCC2(CCNC(=O)CC2)CC1	18.85%	7.509%
COc1ccc(C)cc1CCN	58.23%	10.65%
COC(=O)[C@H](C)NC(=O)c1noc2c1CCCCC2	62.66%	80.16%
CC(=O)N(Cc1ncc(C(C)C)o1)C1CCNC1 (stereo not shown)	7.545%	-5.327%
Cc1ncc(CN(C)CC(O)COCc2ccco2)s1 (stereo not shown)	44.35%	52.81%
Cc1ccc(C(=O)NCCN2CCCC(C)C2)cn1 (stereo not shown)	4.056%	-3.261%
CN(C)c1cc(CNC(=O)c2cccnc2)ccn1	18.02%	1.052%
O=C(NCC1CCS(=O)(=O)C1)c1ccccc1 (stereo not shown)	-7.153%	-0.7151%
CCCNC(=O)N1CCCC(C2OCCO2)C1 (stereo not shown)	5.973%	8.052%
CN(CCC#N)C(=O)CNC(=O)c1ncccc1O	1.393%	2.351%
Cc1nnnn1CCC(=O)N1CC(N2CCCCC2)C1	-7.117%	-10.81%
CC(C)(C)OC(=O)N1CCOCC1	7.436%	-0.6499%
Cn1cc(Cl)c(C(=O)N2CCC3(CCO3)CC2)n1	16.44%	2.087%
CCN1CCN(c2ccc(CN)cc2F)CC1	-13.04%	-20.77%
O=C(N[C@H]1CC[C@@H](CO)CC1)c1ccncc1F	7.851%	4.857%
CN(C)C(=O)CNC(=O)c1cc2ccccc2cc1O	1.175%	-6.801%
CCN(CC(N)=O)C(=O)Cc1cc(F)ccc1F	10.14%	30.45%
O=C(CNC(=O)N1CCC=C(Br)C1)N1CCCCC1	24.69%	17.45%
N#CC1(NC(=O)CCc2cccnc2)CCCC1	13.53%	-2.491%
CCS(=O)(=O)CCNC(=O)c1cncnc1C	2.887%	10.05%
CCN(CC1CCOC1)C(=O)C(C)(C)C (stereo not shown)	4.519%	4.644%
COc1ccc(NCC(=O)N2CCNC(=O)C2)c(C)c1	33.86%	3.103%
NCC(=O)Nc1cccc(Cl)c1	29.39%	23.24%
CC1COCCN1S(=O)(=O)N1CCCCC1 (stereo not shown)	1.569%	1.392%
Cc1cc(=O)[nH]c(C2(N)CCCCC2)n1	-6.904%	-2.658%
Cc1ccsc1CNC(=O)Cn1cnc(C#N)c1C#N	7.847%	-1.814%
CNC(=O)CSCCC1CCCCN1C (stereo not shown)	-7.147%	-9.252%
CC1CCCCN1C(=O)CN(C)CCO (stereo not shown)	-5.302%	-14.15%

8 of the entries, repeated:

For CC1=C(C(=O)NCc2cccnc2)C(C)NC(=O)N1 (stereo not shown) the result was Mtb glucose medium: -9.849%; Mtb cholesterol medium: -7.319%.
For CC(=O)c1ccc(C(=O)NC[C@@H]2C[C@H](F)CN2)s1 the result was Mtb glucose medium: 10.04%; Mtb cholesterol medium: -11.06%.
For CCNC(=O)c1ccc2n1CCNC2C (stereo not shown) the result was Mtb glucose medium: 6.566%; Mtb cholesterol medium: 0.9347%.
For CCC(OC)c1n[nH]c(=O)n1Cc1cccc(OC)c1 (stereo not shown) the result was Mtb glucose medium: 20.26%; Mtb cholesterol medium: -7.159%.
For Cc1cc(NC(=O)CN2CCCC2C(=O)N(C)C)on1 (stereo not shown) the result was Mtb glucose medium: -0.06833%; Mtb cholesterol medium: 0.694%.
For CC(=O)N(Cc1ncc(C(C)C)o1)C1CCNC1 (stereo not shown) the result was Mtb glucose medium: 7.545%; Mtb cholesterol medium: -5.327%.
For CCN(CC(N)=O)C(=O)Cc1cc(F)ccc1F the result was Mtb glucose medium: 10.14%; Mtb cholesterol medium: 30.45%.
For CC(C)(C)OC(=O)N1CCOCC1 the result was Mtb glucose medium: 7.436%; Mtb cholesterol medium: -0.6499%.